These are yes or no findings as the source states them, for the method shown. Binding seen in cells or lysates may run through a third protein. Some binding calls cover weakened binding; strength is not graded here. Where a sequence is shown, tags or fusion partners need not be part of it.

Protein sequences, listed by entry. Tags and fused reporters are not part of them.
UniProt Q94361: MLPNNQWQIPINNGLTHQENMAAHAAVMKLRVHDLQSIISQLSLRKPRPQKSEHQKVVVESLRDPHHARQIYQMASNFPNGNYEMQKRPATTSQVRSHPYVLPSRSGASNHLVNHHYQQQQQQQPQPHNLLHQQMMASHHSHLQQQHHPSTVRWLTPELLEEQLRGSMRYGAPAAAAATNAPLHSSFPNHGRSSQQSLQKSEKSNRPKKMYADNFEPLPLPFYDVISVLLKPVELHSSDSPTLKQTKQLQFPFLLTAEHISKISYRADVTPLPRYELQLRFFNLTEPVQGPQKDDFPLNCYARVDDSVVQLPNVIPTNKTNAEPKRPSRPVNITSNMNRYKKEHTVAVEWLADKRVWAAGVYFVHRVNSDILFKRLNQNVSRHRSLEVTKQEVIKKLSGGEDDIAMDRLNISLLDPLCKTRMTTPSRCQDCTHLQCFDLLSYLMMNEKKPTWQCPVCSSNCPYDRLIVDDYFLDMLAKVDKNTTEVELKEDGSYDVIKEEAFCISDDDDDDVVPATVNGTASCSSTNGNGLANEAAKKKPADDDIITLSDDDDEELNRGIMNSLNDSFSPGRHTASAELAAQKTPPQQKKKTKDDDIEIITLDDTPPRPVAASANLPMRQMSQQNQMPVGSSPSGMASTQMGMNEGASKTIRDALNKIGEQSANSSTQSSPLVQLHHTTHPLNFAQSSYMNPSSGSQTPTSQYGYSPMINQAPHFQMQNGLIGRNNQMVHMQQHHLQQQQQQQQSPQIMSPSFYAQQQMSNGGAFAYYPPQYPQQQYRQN
UniProt O75925: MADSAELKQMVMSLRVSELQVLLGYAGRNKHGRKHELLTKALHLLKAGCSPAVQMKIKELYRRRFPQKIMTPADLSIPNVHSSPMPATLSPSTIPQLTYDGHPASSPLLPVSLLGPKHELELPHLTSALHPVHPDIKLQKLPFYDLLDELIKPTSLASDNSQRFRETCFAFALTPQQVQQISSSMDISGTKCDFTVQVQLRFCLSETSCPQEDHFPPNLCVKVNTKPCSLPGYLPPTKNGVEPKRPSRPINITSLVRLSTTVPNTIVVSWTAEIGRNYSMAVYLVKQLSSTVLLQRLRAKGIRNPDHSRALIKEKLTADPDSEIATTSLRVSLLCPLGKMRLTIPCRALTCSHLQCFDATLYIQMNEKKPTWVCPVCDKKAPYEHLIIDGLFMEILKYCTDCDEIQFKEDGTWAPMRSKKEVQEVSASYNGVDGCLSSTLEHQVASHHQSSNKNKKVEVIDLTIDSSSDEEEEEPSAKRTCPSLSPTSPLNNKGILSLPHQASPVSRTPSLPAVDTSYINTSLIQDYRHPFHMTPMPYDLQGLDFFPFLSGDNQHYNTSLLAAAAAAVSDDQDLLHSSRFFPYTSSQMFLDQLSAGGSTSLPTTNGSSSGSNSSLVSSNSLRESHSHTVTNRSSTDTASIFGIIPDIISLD
UniProt P62820: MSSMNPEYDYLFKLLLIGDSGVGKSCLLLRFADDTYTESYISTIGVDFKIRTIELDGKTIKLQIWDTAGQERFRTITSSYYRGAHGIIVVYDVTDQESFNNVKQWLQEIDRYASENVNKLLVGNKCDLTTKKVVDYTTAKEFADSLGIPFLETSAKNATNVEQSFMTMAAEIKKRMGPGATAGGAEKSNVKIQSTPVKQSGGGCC

The test has as its target T1, HA::hGDI1 expressed in HEK293T cells (human) (UniProt P31150).
T1 sequence: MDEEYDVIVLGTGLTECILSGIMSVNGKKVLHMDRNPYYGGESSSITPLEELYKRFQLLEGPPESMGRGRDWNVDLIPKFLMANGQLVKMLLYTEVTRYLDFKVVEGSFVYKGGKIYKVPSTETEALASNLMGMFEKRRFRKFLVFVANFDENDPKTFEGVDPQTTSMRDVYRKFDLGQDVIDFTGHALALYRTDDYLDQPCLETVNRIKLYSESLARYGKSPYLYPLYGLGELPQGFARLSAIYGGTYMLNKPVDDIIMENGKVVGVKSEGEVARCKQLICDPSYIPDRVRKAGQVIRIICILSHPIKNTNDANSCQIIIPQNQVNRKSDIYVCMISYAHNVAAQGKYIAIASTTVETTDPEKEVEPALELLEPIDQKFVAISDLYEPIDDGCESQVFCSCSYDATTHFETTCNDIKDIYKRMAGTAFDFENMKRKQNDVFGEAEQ
Briefly: co-IP.
With “GEI-17 expressed in HEK293T cells (from UniProt Q94361 1-780) (enzyme)”, the binding result is given as “binds”.
As for “MYC::PIAS1 expressed in HEK293T cells (from UniProt O75925 1-651) (enzyme)”, the entry is “binds”; as for “MYC::RAB1A expressed in HEK293T cells (from UniProt P62820 1-205)”, “binds”.
